{"source": "patent US20220265759A1", "about": "“COMPOSITION AND METHOD FOR PROMOTING WOUND HEALING” (THE BOARD OF TRUSTEES OF THE UNIVERSITY OF ILLIOIS, priority 2019, published 2022)", "test_system": "HUVECs", "assay": "Endothelial cell tube formation induced by CCL28", "format": "cell-based, human", "details": "pretreatment 10 μM, induced by 500 ng/ml CCL28", "method": "Endothelial Cell Tube Formation. HUVECs were transfected with eNOS (50 nM), CCR10 (100 nM), or scrambled control (100 nM) siRNA and, after 48 hours, the cells were transferred to 96-well plates preloaded with extracellular matrix sold under the tradename […]®. To examine the CCL28 signaling pathways, HUVECs were pre-incubated with vehicle or specific inhibitors and then stimulated with or without CCL28 as described previously (Chen, et al. (2015) Ann. Rheum. Dis. 74:1898-1906).\nThe role of CCL28/CCR10 signaling pathways was further investigated in angiogenesis. Pretreatment of cells with 10 μM wortmannin (PI3K inhibitor), 5 μM U0126 (MAPK/ERK inhibitor), 1 mM L-NAME (eNOS inhibitor), 10 μM PP2 (Src kinase inhibitor), and 10 μM STO-609 ([…]) reduced endothelial cell tube formation induced by 500 ng/ml CCL28. […] In addition, CCL28 stimulation of endothelial cells for 24 hours enhanced expression levels of cell adhesion protein […] and anti-apoptotic protein B-cell leukemia/lymphoma-2 (Bcl-2), supporting the proliferation potential of endothelial cells in response to stimulation with CCL28.", "note": "For at least one compound, name, drawing or mass did not settle the structure.", "data": [{"compound": "COC[C@H]1OC(=O)c2coc3c2[C@@]1(C)C1=C(C3=O)[C@@H]2CCC(=O)[C@@]2(C)C[C@H]1OC(C)=O", "note": "[wortmannin]", "values": [{"measurement": "endothelial cell tube formation", "result": "reduced"}]}]}
